In patent US7235518B2, “Fabric care compositions comprising hueing dye” (The Procter & Gamble Company, priority 2004, dated 2007):

Legend:
[1] = Hueing Efficiency Value test (rinse with vs without hueing dye, CIE L*a*b* colour difference); details: about 30 ppm hueing dye in rinse solution, 30 minutes, ambient room temperature
[2] = Wash Removal Value test (Launderometer wash of hued Fabric Samples, AATCC Test Method 61-2003 No. 2A); details: for Wash Removal Value: 100×(1−DE*res/DE*eff), as a percentage; for Residual Coloration DE*res: after Launderometer wash, 0.15 wt. % AATCC Detergent, 49° C., 45 minutes

With `Cc1cc(C)c(S(=O)(=O)[O-])c(C)c1Nc1ccc(Nc2c(C)cc(C)c(S(=O)(=O)[O-])c2C)c2c1C(=O)c1ccccc1C2=O.[Na+].[Na+]` [Acid Brilliant Blue RAWL] the “Hueing Efficiency Value DE*eff” value [1] was 14.40, the “Wash Removal Value” [2] was 93% and the “Residual Coloration DE*res” value [2] was 0.98.
For `CCN(Cc1cccc(S(=O)(=O)[O-])c1)c1ccc(C(=C2C=CC(=[N+](C)C)C=C2)c2ccc(N(CC)Cc3cccc(S(=O)(=O)O)c3)cc2)cc1.[Na]` [Acid Violet 49], the “Hueing Efficiency Value DE*eff” value [1] was 47.26, the “Wash Removal Value” [2] was 95% and the “Residual Coloration DE*res” value [2] was 2.58.
For `O=S(=O)([O-])c1cc(O)c2c(/N=N/c3ccc(Nc4ccccc4)c4c(S(=O)(=O)[O-])cccc34)cc(S(=O)(=O)[O-])cc2c1.[Na+].[Na+].[Na+]` [Anazolene Sodium], the “Hueing Efficiency Value DE*eff” value [1] was 23.57, the “Wash Removal Value” [2] was 98% and the “Residual Coloration DE*res” value [2] was 0.48.
For `CCN(CC)c1ccc(C(=C2C=CC(=[N+](CC)CC)C=C2)c2ccc(N(CC)CC)cc2)cc1.[Cl-]` [Ethyl violet], the “Hueing Efficiency Value DE*eff” value [1] was 93.08, the “Wash Removal Value” [2] was 25% and the “Residual Coloration DE*res” value [2] was 70.17.
